Measurements published in the supplement of paper PMC7666118.
Some of the results follow.

By UniProt entry, the sequences of proteins in these tests, tags left out. Where a name states a change or a piece, a line headed by the entry shows the natural chain unless it says otherwise.
UniProt Q13098: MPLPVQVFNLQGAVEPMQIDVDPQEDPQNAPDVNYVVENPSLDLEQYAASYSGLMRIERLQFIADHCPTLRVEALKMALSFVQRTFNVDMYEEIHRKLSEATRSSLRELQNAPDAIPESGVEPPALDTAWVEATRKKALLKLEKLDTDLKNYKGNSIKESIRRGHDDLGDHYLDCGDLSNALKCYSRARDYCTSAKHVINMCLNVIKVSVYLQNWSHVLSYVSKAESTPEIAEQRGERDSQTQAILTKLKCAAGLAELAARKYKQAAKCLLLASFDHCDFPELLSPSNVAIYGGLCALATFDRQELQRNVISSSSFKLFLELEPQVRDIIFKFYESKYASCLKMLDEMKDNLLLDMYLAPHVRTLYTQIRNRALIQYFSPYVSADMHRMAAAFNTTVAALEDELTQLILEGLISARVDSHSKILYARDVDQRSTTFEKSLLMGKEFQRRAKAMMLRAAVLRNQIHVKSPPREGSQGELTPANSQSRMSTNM
UniProt P35914: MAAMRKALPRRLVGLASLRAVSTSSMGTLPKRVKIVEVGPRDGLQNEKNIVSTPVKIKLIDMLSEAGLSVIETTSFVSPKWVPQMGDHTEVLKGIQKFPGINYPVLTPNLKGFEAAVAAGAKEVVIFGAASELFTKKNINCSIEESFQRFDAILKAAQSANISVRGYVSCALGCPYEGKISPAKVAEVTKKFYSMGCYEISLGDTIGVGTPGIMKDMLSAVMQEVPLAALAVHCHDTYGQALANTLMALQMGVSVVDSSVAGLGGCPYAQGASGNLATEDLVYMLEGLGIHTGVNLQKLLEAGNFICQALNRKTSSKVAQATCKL
UniProt Q96MH2: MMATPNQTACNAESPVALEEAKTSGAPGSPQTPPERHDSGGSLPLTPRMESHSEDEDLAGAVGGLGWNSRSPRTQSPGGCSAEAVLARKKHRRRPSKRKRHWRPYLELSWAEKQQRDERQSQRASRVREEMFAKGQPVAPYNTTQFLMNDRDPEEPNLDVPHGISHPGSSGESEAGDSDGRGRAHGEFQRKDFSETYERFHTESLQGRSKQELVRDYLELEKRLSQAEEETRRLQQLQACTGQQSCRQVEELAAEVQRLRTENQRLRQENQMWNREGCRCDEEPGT
UniProt Q9NP66: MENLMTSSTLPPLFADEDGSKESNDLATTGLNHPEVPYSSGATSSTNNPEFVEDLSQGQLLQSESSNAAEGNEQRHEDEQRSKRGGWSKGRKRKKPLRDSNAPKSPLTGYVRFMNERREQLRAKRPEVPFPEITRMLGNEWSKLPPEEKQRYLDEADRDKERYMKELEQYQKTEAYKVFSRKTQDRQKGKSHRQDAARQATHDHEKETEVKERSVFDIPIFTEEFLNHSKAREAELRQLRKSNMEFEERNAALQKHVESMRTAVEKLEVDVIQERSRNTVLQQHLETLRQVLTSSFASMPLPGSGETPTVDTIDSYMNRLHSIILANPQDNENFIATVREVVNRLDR
UniProt Q6PII5: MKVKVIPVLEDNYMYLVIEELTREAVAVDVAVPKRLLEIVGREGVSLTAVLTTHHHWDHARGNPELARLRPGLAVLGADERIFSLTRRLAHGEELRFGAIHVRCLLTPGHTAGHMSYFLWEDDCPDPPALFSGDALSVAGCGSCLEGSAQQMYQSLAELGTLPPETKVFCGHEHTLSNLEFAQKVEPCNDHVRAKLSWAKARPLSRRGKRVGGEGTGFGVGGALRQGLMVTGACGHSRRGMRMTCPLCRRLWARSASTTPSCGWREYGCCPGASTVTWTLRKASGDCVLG
UniProt Q1KMD3: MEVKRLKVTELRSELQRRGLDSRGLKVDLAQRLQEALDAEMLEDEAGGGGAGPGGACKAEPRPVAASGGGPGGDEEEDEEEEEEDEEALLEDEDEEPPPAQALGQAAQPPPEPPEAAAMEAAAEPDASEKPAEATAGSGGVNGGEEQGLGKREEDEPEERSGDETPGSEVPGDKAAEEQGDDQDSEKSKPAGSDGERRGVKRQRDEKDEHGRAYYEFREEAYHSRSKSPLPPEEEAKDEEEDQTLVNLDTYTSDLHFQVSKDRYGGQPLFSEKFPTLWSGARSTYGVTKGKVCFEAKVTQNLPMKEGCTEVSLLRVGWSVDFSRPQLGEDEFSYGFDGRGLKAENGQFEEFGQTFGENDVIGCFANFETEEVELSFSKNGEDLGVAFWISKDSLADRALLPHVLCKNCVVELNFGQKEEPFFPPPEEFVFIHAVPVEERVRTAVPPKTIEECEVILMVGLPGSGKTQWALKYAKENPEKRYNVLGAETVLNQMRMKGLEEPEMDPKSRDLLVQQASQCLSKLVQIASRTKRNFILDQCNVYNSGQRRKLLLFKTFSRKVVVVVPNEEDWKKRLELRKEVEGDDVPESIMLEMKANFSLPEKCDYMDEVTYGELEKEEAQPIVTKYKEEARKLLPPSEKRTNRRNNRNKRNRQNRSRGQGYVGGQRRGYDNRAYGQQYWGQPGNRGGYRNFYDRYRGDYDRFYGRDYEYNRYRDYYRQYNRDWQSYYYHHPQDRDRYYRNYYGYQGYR
UniProt Q8N3Z3: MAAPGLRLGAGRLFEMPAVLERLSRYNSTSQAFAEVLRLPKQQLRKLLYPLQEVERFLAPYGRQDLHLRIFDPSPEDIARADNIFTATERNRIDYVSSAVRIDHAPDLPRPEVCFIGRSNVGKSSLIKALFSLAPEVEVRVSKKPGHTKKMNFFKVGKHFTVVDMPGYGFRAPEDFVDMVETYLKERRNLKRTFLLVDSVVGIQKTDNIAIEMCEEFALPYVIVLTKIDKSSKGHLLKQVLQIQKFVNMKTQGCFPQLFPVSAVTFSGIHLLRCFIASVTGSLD
UniProt Q13888: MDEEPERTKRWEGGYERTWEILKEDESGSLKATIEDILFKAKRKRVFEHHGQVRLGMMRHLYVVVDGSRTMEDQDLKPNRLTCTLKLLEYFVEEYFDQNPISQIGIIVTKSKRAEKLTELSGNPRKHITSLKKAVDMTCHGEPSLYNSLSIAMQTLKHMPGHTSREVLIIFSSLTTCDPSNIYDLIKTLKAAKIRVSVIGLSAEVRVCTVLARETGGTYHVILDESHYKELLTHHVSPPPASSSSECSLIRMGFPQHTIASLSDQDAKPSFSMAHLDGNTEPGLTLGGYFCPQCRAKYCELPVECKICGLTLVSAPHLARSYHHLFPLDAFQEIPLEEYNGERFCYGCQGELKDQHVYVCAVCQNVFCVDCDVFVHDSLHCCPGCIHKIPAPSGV
UniProt Q8IWK6: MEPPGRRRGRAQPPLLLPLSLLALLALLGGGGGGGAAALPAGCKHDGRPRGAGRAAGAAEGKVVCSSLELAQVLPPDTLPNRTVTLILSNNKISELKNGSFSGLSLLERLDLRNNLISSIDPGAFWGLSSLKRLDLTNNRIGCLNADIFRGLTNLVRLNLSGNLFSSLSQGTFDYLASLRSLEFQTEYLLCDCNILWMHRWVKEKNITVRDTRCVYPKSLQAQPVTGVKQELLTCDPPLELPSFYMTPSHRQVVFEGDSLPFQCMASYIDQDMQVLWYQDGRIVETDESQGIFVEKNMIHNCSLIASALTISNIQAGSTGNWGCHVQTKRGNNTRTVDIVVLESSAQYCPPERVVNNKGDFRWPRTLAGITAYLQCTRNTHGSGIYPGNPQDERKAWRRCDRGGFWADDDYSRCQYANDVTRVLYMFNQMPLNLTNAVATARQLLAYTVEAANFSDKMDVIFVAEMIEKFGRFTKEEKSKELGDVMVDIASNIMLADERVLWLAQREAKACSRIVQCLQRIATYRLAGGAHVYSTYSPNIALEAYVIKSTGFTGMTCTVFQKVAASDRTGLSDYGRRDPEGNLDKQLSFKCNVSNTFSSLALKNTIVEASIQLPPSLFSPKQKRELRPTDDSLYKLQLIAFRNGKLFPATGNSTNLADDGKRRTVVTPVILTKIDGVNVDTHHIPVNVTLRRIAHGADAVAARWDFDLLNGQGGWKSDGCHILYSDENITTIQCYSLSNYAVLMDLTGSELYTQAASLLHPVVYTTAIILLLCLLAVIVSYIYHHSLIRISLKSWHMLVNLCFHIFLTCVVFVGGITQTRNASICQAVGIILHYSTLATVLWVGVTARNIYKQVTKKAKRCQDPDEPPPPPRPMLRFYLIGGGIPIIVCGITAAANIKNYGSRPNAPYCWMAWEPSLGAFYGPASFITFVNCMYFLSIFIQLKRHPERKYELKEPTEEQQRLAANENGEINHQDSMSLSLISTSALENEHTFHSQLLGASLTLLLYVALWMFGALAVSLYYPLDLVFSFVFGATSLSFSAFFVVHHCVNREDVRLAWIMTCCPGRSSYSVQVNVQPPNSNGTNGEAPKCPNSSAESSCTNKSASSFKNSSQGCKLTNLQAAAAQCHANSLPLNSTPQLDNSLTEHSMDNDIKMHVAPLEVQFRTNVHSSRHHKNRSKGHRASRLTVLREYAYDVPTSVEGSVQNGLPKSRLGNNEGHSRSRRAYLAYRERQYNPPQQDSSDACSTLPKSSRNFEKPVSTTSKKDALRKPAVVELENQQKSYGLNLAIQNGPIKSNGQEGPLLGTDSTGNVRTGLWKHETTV
UniProt Q13227: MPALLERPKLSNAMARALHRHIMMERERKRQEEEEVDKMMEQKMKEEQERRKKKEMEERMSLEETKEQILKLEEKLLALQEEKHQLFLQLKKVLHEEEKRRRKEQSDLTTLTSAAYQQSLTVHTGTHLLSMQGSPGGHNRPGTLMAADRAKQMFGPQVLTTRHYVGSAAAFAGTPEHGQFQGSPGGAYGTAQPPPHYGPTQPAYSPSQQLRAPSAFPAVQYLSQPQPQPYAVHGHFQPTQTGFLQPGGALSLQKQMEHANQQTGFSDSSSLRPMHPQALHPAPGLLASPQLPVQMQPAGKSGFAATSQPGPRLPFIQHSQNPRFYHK

compound: COc1ccc(Cn2ccc3cc(C)c(C(=O)NO)cc32)cc1; assay: dose-dependent thermal stabilisation call (2D-TPP, DLPTP, 10% FDR) (binary (1 = stabilised)); higher = stabilised by the compound; conditions: system: HL-60 intact cells; concentration range 0.04-10 µM
Procedure: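 2D thermal proteome profiling in intact HL-60 cells treated with BRD-3811 (0, 0.04, 0.29, 2, 10 uM) for 90 min at 37 C, then heated 3 min at one of 12 temperatures (42-63.9 C). Soluble protein was quantified by TMT10 MS. The value is the DLPTP call of the paper: dose-dependent thermal stabilisation over all temperatures at 10% FDR (F-test of a dose-response against a flat model); one experiment, one call per tested protein.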

Q: GPS1 (UniProt Q13098) was tested. Which “dose-dependent thermal stabilisation call” value did it give?
A: Its value is inactive: 0.

Q: For HMGCL (UniProt P35914), which “dose-dependent thermal stabilisation call” value is on record?
A: Its value is inactive: 0.

Q: For HEXIM2 (UniProt Q96MH2), which “dose-dependent thermal stabilisation call” value is on record?
A: The value was inactive: 0.

Q: HMG20A (UniProt Q9NP66) was tested. Which “dose-dependent thermal stabilisation call” value did it give?
A: The value was inactive: 0.

Q: With HAGHL (UniProt Q6PII5) as the target, how does the “dose-dependent thermal stabilisation call” value read?
A: Its value is inactive: 0.

Q: How did the “dose-dependent thermal stabilisation call” value turn out when HNRNPUL2 (UniProt Q1KMD3) was run?
A: Its value is inactive: 0.

Q: How did the “dose-dependent thermal stabilisation call” value turn out when GTPBP8 (UniProt Q8N3Z3) was run?
A: The value was inactive: 0.

Q: With GTF2H2 (UniProt Q13888) as the target, how does the “dose-dependent thermal stabilisation call” value read?
A: Its value is inactive: 0.

Q: Which “dose-dependent thermal stabilisation call” value does the source give for GPR125 (UniProt Q8IWK6) here?
A: Its value is inactive: 0.

Q: For GPS2 (UniProt Q13227), which “dose-dependent thermal stabilisation call” value is on record?
A: Its value is inactive: 0.
